Data from patent US11685741B2, “Fluorescent probes” (University of Massachusetts, priority 2017, dated 2023).

Experiment: Binding studies of sensor with Fe2+ (stoichiometry, affinity, reversibility)
Settings: H2O/THF pH 7.3
Protocol: The binding stoichiometry between the sensor Rh6GD and Fe^2+ was investigated by absorption and fluorescence titrations first. The sensor, Rh6GD has an absorption band at ˜420 nm (FIG. 26) which is due to the transition from S0 to S1 states (A. Chakraborty, et al., N. Chem. Phys., 2006, 324, 733) of the dimethylaminocinnamaldehyde moiety. […] Similar titrations were performed and were monitored by fluorescence spectroscopy.
The binding constant was estimated by using the absorption titration results. The equations below were used to calculate the binding constant for 2:1 complexes following a reported procedure (M. Guo, et al., Dalton Trans., 2007, 102, 4951). S+2L ? SL2 (1) The complex apparent binding constant is given by
[formula] Fc is the fraction of L that formed a complex; the subscripts e and o stand for equilibrium and initial concentrations, respectively. Au, Am, and Ac are the absorbances of solutions of L (before any Fe^2+ was added), during the titration, and at saturation, respectively. The concentration of free Fe^2+ at equilibrium, [S]e, is found with the following identity: [S]e=[S]o−[SL2]e[=S]o−Fc[L]o (4) Finally, the integrated apparent binding constant equation is shown in equation (5).
Reversibility experiments were carried out by adding the metal chelator EDTA to the Rh6GD-Fe^2+ complex in H2O/THF (pH 7.3, v/v 4:1). […]
Besides metal-selectivity, the binding constant, which describes the strength of binding between the sensor and metal cations, is also an important factor to be considered in bio-imaging. […] Job's method was applied to study the binding stoichiometry between Rh101D and Fe^2+ and monitored by the absorbance at 585 nm.
The binding constants were estimated by using the fluorescence titration results (FIG. 38). […]
The binding stoichiometry and the affinity between the sensor NIRh-Fret and Fe^2+ were investigated by UV-vis absorption titration. […] The binding constant for the formation of this complex was determined to be 2.9×10^6 M^−1 using a reported procedure (C. A. Perez, et al., J. Inorg. Biochem., 2009, 103, 326). […]

Row | SMILES | reversibility of binding on addition of EDTA
1 | CCN(CC)c1ccc2c(c1)OC1=C(CCC/C1=C\C=C1\N(C)c3ccccc3C1(C)C)C21c2ccccc2C(=O)N1/N=C\C=C\c1ccc(N(C)C)cc1 (centres unmarked) [NIRh-Fret, (E)-6′-(diethylamino)-2-(((1Z,2E)-3-(4-(dimethylamino)phenyl)allylidene)amino)-4′-(2-((E)-1,3,3-trimethylindolin-2-ylidene)ethylidene)-1′,2′,3′,4′-tetrahydrospiro[isoindoline-1,9′-xanthen]-3-one] | reversible binding
2 | CN(C)c1ccc(/C=C/C=N/N2C(=O)c3ccccc3C23c2cc4c5c(c2Oc2c3cc3c6c2CCCN6CCC3)CCCN5CCC4)cc1 [Rh101D] | reversible binding
